Consider one substance from article PMC9426035.

Protein sequences, listed by entry. Tags and fused reporters are not part of them.
UniProt Q8NEB9: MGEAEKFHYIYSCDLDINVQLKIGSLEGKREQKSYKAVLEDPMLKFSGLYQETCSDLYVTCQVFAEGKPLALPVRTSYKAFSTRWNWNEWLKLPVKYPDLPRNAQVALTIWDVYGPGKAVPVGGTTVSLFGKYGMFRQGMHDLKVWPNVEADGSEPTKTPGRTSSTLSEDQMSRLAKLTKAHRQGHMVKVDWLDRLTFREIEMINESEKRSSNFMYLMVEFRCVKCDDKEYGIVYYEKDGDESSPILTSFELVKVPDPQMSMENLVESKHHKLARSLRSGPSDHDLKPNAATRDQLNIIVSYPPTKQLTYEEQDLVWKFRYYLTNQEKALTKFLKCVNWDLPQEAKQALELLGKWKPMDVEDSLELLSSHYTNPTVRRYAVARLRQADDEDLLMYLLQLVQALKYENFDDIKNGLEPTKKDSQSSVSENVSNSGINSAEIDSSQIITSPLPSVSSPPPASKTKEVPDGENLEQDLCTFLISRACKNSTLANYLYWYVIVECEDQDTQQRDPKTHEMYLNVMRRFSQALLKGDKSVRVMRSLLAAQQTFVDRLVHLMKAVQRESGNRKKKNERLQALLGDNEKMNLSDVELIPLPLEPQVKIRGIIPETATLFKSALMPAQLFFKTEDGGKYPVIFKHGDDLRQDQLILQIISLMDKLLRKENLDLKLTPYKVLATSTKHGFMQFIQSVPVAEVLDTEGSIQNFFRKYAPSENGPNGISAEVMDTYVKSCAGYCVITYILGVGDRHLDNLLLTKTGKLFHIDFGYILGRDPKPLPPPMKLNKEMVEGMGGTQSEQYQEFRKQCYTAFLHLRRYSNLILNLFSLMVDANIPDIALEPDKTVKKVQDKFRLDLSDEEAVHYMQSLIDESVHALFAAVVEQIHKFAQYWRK
UniProt P63104: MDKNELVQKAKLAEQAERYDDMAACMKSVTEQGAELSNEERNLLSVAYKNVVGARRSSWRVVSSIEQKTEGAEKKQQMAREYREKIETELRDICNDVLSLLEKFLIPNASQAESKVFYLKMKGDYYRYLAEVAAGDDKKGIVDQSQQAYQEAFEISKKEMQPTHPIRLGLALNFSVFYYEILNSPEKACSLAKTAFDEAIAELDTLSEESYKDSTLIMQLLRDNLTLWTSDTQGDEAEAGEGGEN

Results are given in words; binding and its absence hold for the method and conditions named. Binding seen in cells or lysates may run through a third protein. Some results given as binding are weak or reduced against the parent protein; the word gives no strength.

This assay deals with Vps34 (human) (UniProt Q8NEB9). The assay is described as follows: co-IP; H1299 cells lysed in NP-40 buffer with PMSF; antibody and protein G agarose beads overnight at 4 °C; washed 3 times; western blot; for Fig. 4J with or without GNIP1 overexpression. (In general: A western blot detects proteins with antibodies after separation by electrophoresis.)

For 14-3-3ζ (from UniProt P63104 1-245), the binding result is on record as “binds”.
